# Percent effect of library compounds

Each number is a percent effect as filed.
The controls that fix the scale are not given in the record; negative values are as filed.
This is an unselected part of the compounds tested.
Two or more numbers in one place are separate tests of the same structure; such repeats can differ widely.

Mtb cholesterol medium: 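Growth of Mycobacterium tuberculosis over 4 days (cholesterol / DPPC medium with tyloxapol); the read-out is not stated. Compounds at 50 µM. The record gives no direction; compounds that gave an IC50 in retests scored well above the rest, so higher reads as more growth inhibition. Size under these conditions: about 69,000 compounds, about 370 of them at 50% or above in at least one test.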
Mtb glucose medium: 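Whole-cell growth test on Mycobacterium tuberculosis, read after 3 days in glucose-containing 7H9 medium; the read-out is not stated. Compounds at 50 µM. Higher reads as more growth inhibition (inferred: compounds with an IC50 in retests scored well above the rest). Size under these conditions: about 69,000 compounds, about 760 of them at 50% or above in at least one test.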

NC(=O)C1CN(Cc2c[nH]cn2)CCN(C2CCOCC2)C1 (stereo not drawn) read Mtb cholesterol medium: -18.85%; Mtb glucose medium: -6.272%. Cc1nccn1CCC1CCN(C2CCC3(CCNCC3)CC2)CC1 gave Mtb cholesterol medium: -24.1%; Mtb glucose medium: -2.149% and -3.93%. Result for CC(C)N(C)[C@@H]1CCN(c2ncccn2)[C@H]1Cc1ccncc1.O=C(O)C(F)(F)F.O=C(O)C(F)(F)F was Mtb cholesterol medium: -16.89%; Mtb glucose medium: -4.892% and -10.96%. CC(c1nc(C2CC2)no1)N1CCN(c2ccc(C#N)cn2)CC1 (stereo not drawn) read Mtb cholesterol medium: 2.133%; Mtb glucose medium: -5.594% and 11.03%. With [H][C@@]12CCN(Cc3ccoc3)[C@]1([H])C[C@@H](C(=O)NCC1CCOCC1)O2 the screen gave Mtb cholesterol medium: 2.679%; Mtb glucose medium: -6.211%. For O=C(c1ccoc1)N1CCC2(C1)CN(c1ncccn1)C2 the result was Mtb cholesterol medium: -15.19%; Mtb glucose medium: -4.889% and 7.657%. For O=C(O)CC(O)(CC(=O)O)C(=O)O.[H][C@@]12CC[C@@](O)(c3ccc(C)cn3)[C@]1([H])CN(Cc1cccc(F)c1F)C2 the result was Mtb cholesterol medium: 6.101%; Mtb glucose medium: 24.58%. CC1=Nc2c(c(=O)[nH]n2C2CCCCC2)C(c2ccc(C(=O)O)cc2)S1 (stereo not drawn) gave Mtb cholesterol medium: -2.554% and -25.08%; Mtb glucose medium: 14.55% and -15.62%.

For NC(=O)CCN(CC(=O)NCc1cccs1)c1ccc(F)cc1 the result was Mtb cholesterol medium: -7.424%; Mtb glucose medium: 9.806%. For CC(=O)Nc1nc(C2CCN(C(=O)c3cccnc3)CC2)cs1 the result was Mtb cholesterol medium: 7.853%; Mtb glucose medium: 25.72%. With CCNC(c1ccc(OC)cc1)c1cccnc1 (stereo not drawn) the screen gave Mtb cholesterol medium: -1.324%; Mtb glucose medium: -8.115%. With Cc1nccn1CCCC(=O)N1CCC(N(C)c2cccnn2)CC1 the screen gave Mtb cholesterol medium: 10.57%; Mtb glucose medium: 22.34%. With CN(C)C(=O)N1CCC2(CC1)CNc1ccc(F)cc12.Cl the screen gave Mtb cholesterol medium: 17.7%; Mtb glucose medium: -3.7% and 3.328%. For O=C(CCCn1cncn1)NC1(c2ccc(Cl)cc2)CCC1 the result was Mtb cholesterol medium: -23.98%; Mtb glucose medium: -11.99% and 3.995%. CC(C)Oc1ncccc1CNC(=O)c1ccco1 read Mtb cholesterol medium: -0.5332%; Mtb glucose medium: 16.1%. Result for Cc1ccccc1CC(=O)N1CCCn2cncc2C1 was Mtb cholesterol medium: 8.178%; Mtb glucose medium: -15.13%.

Result for CCOc1ccccc1C(=O)NC(CC(=O)O)c1cccs1 (stereo not drawn) was Mtb cholesterol medium: -5.115%; Mtb glucose medium: -17.03%. Cc1cc(C)n(C2CN(CCc3ccccn3)C2)n1 read Mtb cholesterol medium: -13.86%; Mtb glucose medium: -5.379%. O=C(O)C(F)(F)F.O=C(O)C(F)(F)F.[H][C@@]12CCCO[C@]1([H])[C@H](N(C)Cc1ccco1)CN(Cc1ccc(C)s1)C2 read Mtb cholesterol medium: -7.727%; Mtb glucose medium: 22.11%. O=C(O)C(F)(F)F.[H][C@@]12OCCN(C(=O)c3occc3C)[C@@]1([H])CC[C@H]2OCCN(C)C gave Mtb cholesterol medium: -11.41%; Mtb glucose medium: -10.68%. For CC(C)CCn1ccc(NC(=O)N2CCCC2C(C)(C)O)n1 (stereo not drawn) the result was Mtb cholesterol medium: 1.299%; Mtb glucose medium: -0.8753%. For COc1cc(Cl)c(NC(=O)NCCn2cccc2)cc1OC the result was Mtb cholesterol medium: -24.54%; Mtb glucose medium: 5.735%. For CSc1nccc(N2CCC(NCc3ccc4c(c3)OCO4)CC2)n1 the result was Mtb cholesterol medium: -0.2636%; Mtb glucose medium: -3.193%. For Cc1cn2c(n1)CCC(NC(=O)CCn1ccnn1)C2 (stereo not drawn) the result was Mtb cholesterol medium: -13.21%; Mtb glucose medium: -0.4433%.

CC(NC(=O)C1=NN(C)C(=O)CC1)c1cccc(Cl)c1 (stereo not drawn) read Mtb cholesterol medium: -9.371%; Mtb glucose medium: 4.921%. For N#Cc1ccc(CN2CCCC2Cn2cccn2)c(F)c1 (stereo not drawn) the result was Mtb cholesterol medium: 10.86%; Mtb glucose medium: 0.4768% and 6.114%. Result for NC(=O)c1c(NC(=O)CCCC(=O)O)sc2c1CCc1ccccc1-2 was Mtb cholesterol medium: 13.75%; Mtb glucose medium: 22.89%. O=C(O)C(F)(F)F.[H][C@@]12C[C@@H](C(=O)Nc3cnccn3)CN(Cc3ccsc3)[C@]1([H])CCO2 read Mtb cholesterol medium: -5.863%; Mtb glucose medium: 3.766%. CCc1nnc(CN(CC)C(=O)C2CC(=O)N(Cc3cccnc3)C2)o1 (stereo not drawn) gave Mtb cholesterol medium: 7.772%; Mtb glucose medium: 27.39%. Result for CCN(CC)c1ncc(CNCC2CCCn3ccnc32)s1 (stereo not drawn) was Mtb cholesterol medium: -15.97%; Mtb glucose medium: -23.03%. For CN1CCC(N(Cc2ccncc2)Cc2nc3c(s2)CCCC3)CC1 the result was Mtb cholesterol medium: -9.683%; Mtb glucose medium: -19.76% and -3.142%. O=C(N[C@@H]1CCN(c2ncc(Cl)cc2Cl)C[C@H]1O)c1cnccn1 gave Mtb cholesterol medium: -3.194%; Mtb glucose medium: -14.6%.

Result for Cc1ccc(S(=O)(=O)NC(=O)CCC(F)(F)F)cc1N(C)C was Mtb cholesterol medium: 5.402%; Mtb glucose medium: 6.1% and -2.972%. Result for NS(=O)(=O)CCN(CCc1cccc(F)c1)C1CCCC1 was Mtb cholesterol medium: -13.66%; Mtb glucose medium: 1.937%. For Cc1ccsc1C(=O)N1CC(C(=O)NCC2CC2)C2(CCOCC2)C1 (stereo not drawn) the result was Mtb cholesterol medium: -9.208%; Mtb glucose medium: -12.07%. For Cc1cnn(CC(=O)N2CCC(c3ccn4nccc4n3)CC2)c1 the result was Mtb cholesterol medium: 4.481% and -4.554%; Mtb glucose medium: -40.27%. With COc1cc(CNCCc2cnn(C)c2)cc2c1OCCO2 the screen gave Mtb cholesterol medium: -6.007%; Mtb glucose medium: -33.27%. For [H][C@]12CC[C@@]3(N=C(CC)NC3=O)[C@@]1([H])CN(C(=O)Nc1ccc(F)cc1)C2 the result was Mtb cholesterol medium: 37.13% and 1.406%; Mtb glucose medium: 0.3647%.

3 of the entries, repeated:

Result for CC(=O)Nc1nc(C2CCN(C(=O)c3cccnc3)CC2)cs1 was Mtb cholesterol medium: 7.853%; Mtb glucose medium: 25.72%.
Result for O=C(N[C@@H]1CCN(c2ncc(Cl)cc2Cl)C[C@H]1O)c1cnccn1 was Mtb cholesterol medium: -3.194%; Mtb glucose medium: -14.6%.
Result for CC(C)Oc1ncccc1CNC(=O)c1ccco1 was Mtb cholesterol medium: -0.5332%; Mtb glucose medium: 16.1%.

Source: ChEMBL document CHEMBL3988442, “University of Dundee, Small-Polar-MMV Screening Library” (2021).